Source: patent US20250367313A1 (MULTITUDE, published 2025)
Changes are numbered by the printed parent chain. No constants are given. Whether binding was seen depends on the method and setting. Some entries that bind do so weakly or less than the wild type.

T1: recombinant MUC18 protein (rProtein) (Homo sapiens (Human)) (UniProt P43121)
T1 sequence: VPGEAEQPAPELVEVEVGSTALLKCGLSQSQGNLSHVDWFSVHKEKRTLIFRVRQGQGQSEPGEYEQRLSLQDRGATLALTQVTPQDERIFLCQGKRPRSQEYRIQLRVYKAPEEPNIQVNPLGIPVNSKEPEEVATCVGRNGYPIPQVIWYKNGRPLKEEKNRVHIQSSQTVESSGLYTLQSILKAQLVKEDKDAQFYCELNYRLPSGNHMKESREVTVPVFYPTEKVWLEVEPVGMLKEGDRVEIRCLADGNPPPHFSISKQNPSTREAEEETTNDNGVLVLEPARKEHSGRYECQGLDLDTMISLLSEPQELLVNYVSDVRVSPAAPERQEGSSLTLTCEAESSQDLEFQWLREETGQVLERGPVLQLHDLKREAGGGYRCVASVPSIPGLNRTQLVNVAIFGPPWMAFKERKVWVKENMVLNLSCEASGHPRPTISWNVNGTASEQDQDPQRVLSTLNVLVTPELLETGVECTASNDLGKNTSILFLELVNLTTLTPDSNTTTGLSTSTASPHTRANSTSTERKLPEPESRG

B1: CL070341 (antibody, V domains shown)
VH: EVQLVESGGDLVRPGGSLKLSCAASGFTFSTYGMSWVRQSPDKRLEWVATINSRASYTYYPDSVKGRFTISRDNAKNTLYLQMSSLKSEDTGLYFCARHRRDWDSYYAMDYWGQGTSVTVSS
VL: NIMLTQSPSSLAVSTGDKVTMNCKSSQSVLYNSNQKNYLAWYQQKPGQSPTLLIYWASTSESGVPDRFTGSGSGTDFTLTISSVQAEDLAVYYCHQYLSSWTFGGGTKLEIK
notes: also called anti-MUC18 antibody CL070341
B2: CL070350 (antibody, V domains shown)
VH: AVQLVESGGDLLRPGGSLKLSCVASGFTFNNYGMSWVRQTPDKRLEWVATINRGGSYTYYTDSVKGRFTISRDNAKKTLYLQMSSLKSEDTAMYYCARHRRDWDSYYAMDYWGQGTSVTVSS
VL: B1 VL with L4M, T15A, T20A, N22S, Q27R, Q44L, T51K, S60R, L109V
notes: also called anti-MUC18 antibody CL070350
B3: J253 (antibody, V domains shown)
VH: QVQLQQSGAELVKPGASVKLSCKASGYTFTSYDINWVRQRPEQGLEWIGWIFPGDGSTDYNEKFKGKATLTTDKSSSTAYMQLSRLTSEDSAVYFCARYHFFDNWGQGTTLTVSS
VL: DIVITQDELSNPVTSGESVSISCRSSKSLLYKDGKTYLSWFLQRPGQSPQLLIYLMSTRASGVSDRFSGSGSGTDFTLEISRVKAEDVGVYYCQQLVEYPYTFGGGTKLEIK
notes: also called anti-MUC18 antibody (J253)
B4: CL070336 (antibody, V domains shown)
VH: DVQLQESGPDLVKPYQSLSLTCTVTGYSITSGYSWHWIRQFPGNKLEWLGYMHYSATPNYNPSLKSRISITRDTSKNQFFLQLNSVTTEDTATYYCSRSLNWDVLDYWGQGTTLIVSS
VL: DIVLTQSPAYLPVSLGQRATISCRASKSVRTSGYNYLHWYQQKPGQPPKLLIYLASNPESGVPGRFSGSGSGTDFTLNIHPVEEEDSATYYCQHSREFPFTFGGGTQLEIK
notes: also called anti-MUC18 antibody CL070336
B5: CL070335 (antibody, V domains shown)
VH: B4 VH with Y15S, L49M, M52I, A56T, P58T, N84S, Y95F
VL: B4 VL with N35S, P58L, G64D, S87A, S95T, Q107K
notes: also called anti-MUC18 antibody CL070335
B6: CL070370 (antibody, V domains shown)
VH: QIQLVQSGPELKKPGETVKISCKTSGYTFTDYSMHWVKQAPRKGLKWMGWINTETGEPTYADDFKGRFAFSLETSASTAYLQINNLRNEDTATYFCVSYDYDAVSYWGQGTLVTVSA
VL: DIVMTQSHKFMSTSVGDRVNITCKASQYVGAAVAWYQQKPGQSPKLLIYWASTRHTGVPDRFTGSGSGTDFTLTINNVQSEDLADYFCQQYGNYRTFGGGTKLEIK
notes: also called anti-MUC18 antibody CL070370
B7: CL070324 (antibody, V domains shown)
VH: EVLLQQSGPELVKPGASVKIPCKASGYTFTDYNMDWVKQSHGKSLEWIGDINPNNGATLYNQNFRGKATLTVDKSSSTAYMELRSLTSEDTAVYYCTRSGYDDYYALDYWGQGTSVTVSS
VL: QTVLTQSPAIMSASLGEEITLTCSASSSVGYMHWYQQKSGTSPKLLIYSTSNLASGVPSRFSGRGSGTFYSLTISTVEAEDAADYYCHQWSNYPSTFGTGTKLELK
notes: also called anti-MUC18 antibody CL070324
B8: CL070320 (antibody, V domains shown)
VH: B7 VH with K13Q, A16T, A57G, N63K, R65K, T71S, T91A, T97A, D103N
VL: B7 VL with T2I, A9P, S28T, Y35F, R64S, T76S, N92S, S95C, T99A
B9: CL070321 (antibody, V domains shown)
VH: B7 VH with M34I, A57G, N63K, R65K, G66A, L70M, E89D, T97A, L107F
VL: QVVLTQSPAIMSAFLGEKITLTCSASSSVGYLHWYQQKSGTSPKLLIYSTSNVASGVPSRFSGSGSGTFYSLKISSVEAEDAADYYCHQWSSYPSTFGAGTRLELK
B10: CL070349 (antibody, V domains shown)
VH: DVQLQESGPGLVKPSQSLSLTCSVTGYSITSGFYWNWIRQLPGNKLEWLGYINFGGTNNYNPSLKIRGSITRDTSKNQFFLKLNSVTTEDTATYYCARGGNDGGFTYWGQGTLVTVSA
VL: ENVLTQSPAIVAASLGQKVTMTCRASSSVSSTYFHWYQQKSGASPKPLLHRTSNLASGVPARFSGSGSGTSYSLTISSVEAEDDATYYCHQWSGYPYTFGGGTKLEIK
notes: also called anti-MUC18 antibody CL070349
B11: CL070333 (antibody, V domains shown)
VH: QVQLQQSGPELVKPGTSVKISCKASGFTFTGYYLHWLKQRPGQGLEWIGWIYPGNVNTEFNEKFKGQATLTADKSSSTAYMQLSSLTSEDSAVYFCARSGYFASSYEFAYWGQGTLVTVSA
VL: DIQMTQSPASLSASVGETVTITCRASENIYSYLAWYQQKQGKSPQLLVYNAKTLAEGVPSRFSVSGSGTHFSLKINSLQPEDFGSYYCQHHYGTPLTFGAGTKLELK
notes: also called anti-MUC18 antibody CL070333

target: T1, recombinant MUC18 protein (rProtein) (Homo sapiens (Human)); experiment: ELISA titration with recombinant MUC18 protein

binding | Binder
binds | B1
binds | B2
binds | B3
binds | B4
binds | B5
binds | B6
binds | B7
no binding (tested: 1000 nM) | B8
no binding (tested: 1000 nM) | B9
binds | B10
binds | B11
